From article PMC12130464
No constants are given. Whether binding was seen depends on the method and setting. In cells and extracts the contact can be indirect. Some entries that bind do so weakly or less than the wild type.

Protein sequences, listed by entry. Tags and fused reporters are not part of them. Lines headed by an entry give the natural chain unless they say otherwise; changes in a name come on top. Chains listed by the source or under a name are the forms on record and can include a tag or linker.
UniProt Q9UKA4: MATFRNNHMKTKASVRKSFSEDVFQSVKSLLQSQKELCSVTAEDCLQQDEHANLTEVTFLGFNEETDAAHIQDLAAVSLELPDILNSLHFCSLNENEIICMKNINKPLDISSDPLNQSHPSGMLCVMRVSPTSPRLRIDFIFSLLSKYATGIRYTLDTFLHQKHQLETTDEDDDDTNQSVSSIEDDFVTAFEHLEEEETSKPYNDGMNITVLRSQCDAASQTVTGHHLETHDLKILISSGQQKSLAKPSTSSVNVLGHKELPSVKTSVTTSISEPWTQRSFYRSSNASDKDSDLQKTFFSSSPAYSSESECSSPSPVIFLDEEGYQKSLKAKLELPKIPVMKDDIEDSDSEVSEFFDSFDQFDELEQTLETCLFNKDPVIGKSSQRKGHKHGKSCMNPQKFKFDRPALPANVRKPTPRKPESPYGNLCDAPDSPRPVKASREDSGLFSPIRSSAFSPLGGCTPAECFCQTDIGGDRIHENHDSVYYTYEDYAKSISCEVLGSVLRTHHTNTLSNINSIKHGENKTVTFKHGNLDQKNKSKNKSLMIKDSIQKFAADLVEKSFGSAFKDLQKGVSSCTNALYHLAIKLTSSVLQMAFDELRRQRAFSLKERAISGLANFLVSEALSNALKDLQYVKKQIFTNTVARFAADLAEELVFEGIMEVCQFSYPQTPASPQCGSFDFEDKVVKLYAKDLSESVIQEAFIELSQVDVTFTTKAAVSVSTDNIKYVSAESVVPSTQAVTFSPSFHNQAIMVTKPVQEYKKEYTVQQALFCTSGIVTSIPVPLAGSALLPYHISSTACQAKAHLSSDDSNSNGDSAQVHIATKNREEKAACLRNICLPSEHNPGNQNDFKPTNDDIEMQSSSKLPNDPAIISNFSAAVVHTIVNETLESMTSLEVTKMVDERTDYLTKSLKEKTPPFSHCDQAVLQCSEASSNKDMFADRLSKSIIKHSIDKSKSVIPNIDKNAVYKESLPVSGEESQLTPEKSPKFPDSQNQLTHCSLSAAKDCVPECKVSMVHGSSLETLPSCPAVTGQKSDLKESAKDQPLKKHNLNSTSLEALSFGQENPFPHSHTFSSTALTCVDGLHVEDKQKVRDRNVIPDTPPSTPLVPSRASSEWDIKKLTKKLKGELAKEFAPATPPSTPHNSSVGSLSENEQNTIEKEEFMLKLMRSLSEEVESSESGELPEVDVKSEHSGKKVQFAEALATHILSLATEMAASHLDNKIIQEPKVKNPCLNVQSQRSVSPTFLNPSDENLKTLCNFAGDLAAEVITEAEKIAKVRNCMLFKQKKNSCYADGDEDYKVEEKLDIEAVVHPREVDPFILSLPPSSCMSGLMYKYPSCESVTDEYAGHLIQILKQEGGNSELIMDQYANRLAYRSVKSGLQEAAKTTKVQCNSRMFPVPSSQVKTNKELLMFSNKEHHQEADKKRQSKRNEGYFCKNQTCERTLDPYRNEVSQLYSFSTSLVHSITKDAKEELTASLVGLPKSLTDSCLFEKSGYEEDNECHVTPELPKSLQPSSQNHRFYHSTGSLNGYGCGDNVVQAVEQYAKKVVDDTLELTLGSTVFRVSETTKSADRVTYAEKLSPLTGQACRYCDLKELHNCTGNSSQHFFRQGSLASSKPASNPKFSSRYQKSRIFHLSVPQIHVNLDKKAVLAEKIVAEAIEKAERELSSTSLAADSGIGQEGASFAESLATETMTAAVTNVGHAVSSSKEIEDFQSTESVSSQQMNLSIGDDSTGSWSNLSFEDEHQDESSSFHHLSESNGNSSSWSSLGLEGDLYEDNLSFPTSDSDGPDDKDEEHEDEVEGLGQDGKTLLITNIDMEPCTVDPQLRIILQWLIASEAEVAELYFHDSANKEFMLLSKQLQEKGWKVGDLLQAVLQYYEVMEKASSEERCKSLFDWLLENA
HA-tagged AKAP11 4ALIR mutant (WSNL > AAAA) (Q9UKA4, form named): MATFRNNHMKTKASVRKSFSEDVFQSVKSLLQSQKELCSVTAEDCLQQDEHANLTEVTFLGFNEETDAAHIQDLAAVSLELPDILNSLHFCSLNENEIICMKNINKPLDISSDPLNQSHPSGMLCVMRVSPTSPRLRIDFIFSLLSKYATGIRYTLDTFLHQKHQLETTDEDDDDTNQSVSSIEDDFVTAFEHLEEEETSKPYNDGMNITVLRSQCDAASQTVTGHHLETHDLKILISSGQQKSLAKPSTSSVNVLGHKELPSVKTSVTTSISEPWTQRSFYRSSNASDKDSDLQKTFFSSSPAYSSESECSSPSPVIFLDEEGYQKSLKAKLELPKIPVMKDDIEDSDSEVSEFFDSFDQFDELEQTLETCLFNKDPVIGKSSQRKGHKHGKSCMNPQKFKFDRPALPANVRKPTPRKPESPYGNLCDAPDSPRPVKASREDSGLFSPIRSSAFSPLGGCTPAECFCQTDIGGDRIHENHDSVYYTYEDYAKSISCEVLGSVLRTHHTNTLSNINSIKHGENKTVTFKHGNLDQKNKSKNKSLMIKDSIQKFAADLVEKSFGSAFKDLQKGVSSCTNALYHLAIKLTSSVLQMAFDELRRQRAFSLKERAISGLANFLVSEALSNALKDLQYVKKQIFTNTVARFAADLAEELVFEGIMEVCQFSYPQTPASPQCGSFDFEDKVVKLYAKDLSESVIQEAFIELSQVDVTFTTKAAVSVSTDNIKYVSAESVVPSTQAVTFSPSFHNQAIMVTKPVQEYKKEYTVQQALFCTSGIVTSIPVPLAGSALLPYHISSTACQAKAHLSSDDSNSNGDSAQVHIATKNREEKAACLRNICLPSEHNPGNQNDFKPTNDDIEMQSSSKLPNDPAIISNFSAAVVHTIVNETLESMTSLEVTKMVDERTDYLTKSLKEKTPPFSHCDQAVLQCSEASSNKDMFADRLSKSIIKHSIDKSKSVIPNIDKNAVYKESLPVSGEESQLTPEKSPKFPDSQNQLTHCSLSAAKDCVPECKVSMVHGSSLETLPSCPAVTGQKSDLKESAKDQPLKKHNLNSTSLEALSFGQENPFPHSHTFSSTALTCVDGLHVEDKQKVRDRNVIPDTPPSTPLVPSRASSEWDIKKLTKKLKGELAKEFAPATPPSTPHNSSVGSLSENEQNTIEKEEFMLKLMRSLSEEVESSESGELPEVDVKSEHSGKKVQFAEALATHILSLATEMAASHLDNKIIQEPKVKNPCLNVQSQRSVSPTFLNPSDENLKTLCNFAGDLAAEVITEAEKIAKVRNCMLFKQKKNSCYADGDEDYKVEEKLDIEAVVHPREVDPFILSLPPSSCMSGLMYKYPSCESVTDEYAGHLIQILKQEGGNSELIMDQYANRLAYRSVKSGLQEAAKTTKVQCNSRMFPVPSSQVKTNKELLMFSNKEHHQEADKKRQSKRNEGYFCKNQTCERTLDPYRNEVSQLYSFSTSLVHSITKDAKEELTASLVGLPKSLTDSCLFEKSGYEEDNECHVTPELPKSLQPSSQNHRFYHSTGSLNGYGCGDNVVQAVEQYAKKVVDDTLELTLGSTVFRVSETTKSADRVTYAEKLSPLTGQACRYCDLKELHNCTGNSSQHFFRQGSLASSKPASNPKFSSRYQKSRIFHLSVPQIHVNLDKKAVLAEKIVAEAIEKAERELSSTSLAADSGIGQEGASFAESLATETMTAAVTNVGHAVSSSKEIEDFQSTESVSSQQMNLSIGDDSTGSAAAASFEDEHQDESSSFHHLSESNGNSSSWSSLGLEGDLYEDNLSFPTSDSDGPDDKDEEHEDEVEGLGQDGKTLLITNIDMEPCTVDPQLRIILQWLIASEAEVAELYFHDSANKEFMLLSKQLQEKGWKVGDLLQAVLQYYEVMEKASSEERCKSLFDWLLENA
UniProt P10644: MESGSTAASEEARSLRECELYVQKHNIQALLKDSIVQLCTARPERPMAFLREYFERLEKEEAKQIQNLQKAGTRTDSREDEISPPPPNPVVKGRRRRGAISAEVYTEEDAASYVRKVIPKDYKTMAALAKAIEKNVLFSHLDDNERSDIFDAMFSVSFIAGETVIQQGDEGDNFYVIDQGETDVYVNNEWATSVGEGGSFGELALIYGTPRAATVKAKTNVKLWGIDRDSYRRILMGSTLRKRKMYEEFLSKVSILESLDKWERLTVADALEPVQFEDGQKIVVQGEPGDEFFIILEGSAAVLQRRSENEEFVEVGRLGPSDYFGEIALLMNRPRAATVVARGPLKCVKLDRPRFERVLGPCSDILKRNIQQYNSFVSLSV

Tests used:
[1] = target: HA-tagged AKAP11 4ALIR mutant (WSNL > AAAA) (human) (UniProt Q9UKA4); experiment: co-IP; HA immunoprecipitation (anti-HA magnetic beads, 1 h, 4 °C) from HEK293T transiently transfected with HA-AKAP11 constructs; complete media (10% FBS DMEM); increasing forskolin for 20 min; blots for endogenous RIα and Cα
[2] = target: HA-tagged AKAP11, wild type (human) (UniProt Q9UKA4); experiment: as above

binding [1]: binds | binding [2]: binds
Substance: endogenous PKA regulatory subunit RIα (from UniProt P10644 1-381)
